Experimental data: PubChem BioAssay AID1347072 (National Center for Advancing Translational Sciences (NCATS), 2019)
Among all 44,000 compounds or so, fewer than 10 were called active. The inconclusive results got no clear call from the source; some entries with a clear call stand among them for comparison. Calls come from the whole dose curve; as a rule, active = well fitted curve in the direction sought with a large enough effect; inconclusive = small, poorly fitted or top-dose-only effect, or another doubt; inactive = no such curve, though single readings can be large or run the other way. Potencies beside an inconclusive call are fits to weak or partial responses and may not hold up.

The chains behind the UniProt entries cited, without tags or fusion partners. Where a name states a change or a piece, a line headed by the entry shows the natural chain unless it says otherwise.
UniProt P51570: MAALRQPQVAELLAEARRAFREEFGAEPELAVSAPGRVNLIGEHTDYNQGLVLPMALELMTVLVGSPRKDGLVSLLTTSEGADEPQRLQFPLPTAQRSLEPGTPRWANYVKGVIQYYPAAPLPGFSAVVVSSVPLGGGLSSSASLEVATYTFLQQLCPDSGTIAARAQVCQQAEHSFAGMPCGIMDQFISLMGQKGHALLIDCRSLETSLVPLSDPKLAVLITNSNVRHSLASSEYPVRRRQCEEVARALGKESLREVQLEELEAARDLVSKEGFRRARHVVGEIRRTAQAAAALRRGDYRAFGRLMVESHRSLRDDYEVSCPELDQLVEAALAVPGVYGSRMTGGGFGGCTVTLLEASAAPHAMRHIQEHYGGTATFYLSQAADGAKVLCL

These molecules were tested against Galactokinase (Homo sapiens) (UniProt P51570) (assay: qHTS Assay for Inhibitors of Human Galactokinase (GALK): NCGC Sytravon Library Screen). Settings: recombinant GALK, Kinase-Glo ATP luminescence, 1 h; series mostly up to 57.5 µM; activity, negative = inhibition: at the top concentration.
Outline: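 5 nM GALK with 35 µM ATP and 100 µM galactose in HEPES pH 8.0, MgCl2, NaCl, DTT, BSA; 1 h RT reaction, remaining ATP detected by Kinase-Glo Plus luminescence after 10 min; qHTS concentration series.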
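Throughout, for activity, negative = inhibition: plate controls were full GALK reaction for no effect and reaction lacking GALK for full effect.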

activity, negative = inhibition, inactive:
Cc1ccc(C)c(N2CCN(CCCNC(=O)Nc3cc(Cl)ccc3C)CC2)c1 -1.29%
O=C(Nc1nc2ccc(F)cc2s1)c1nc(S(=O)(=O)Cc2ccccc2)ncc1Cl 0.271%
Cc1ccc(Cl)cc1N1CCN(C(=O)Cn2cnc3sc(C)c(S(=O)(=O)N4CCC(C)CC4)c3c2=O)CC1 -5.3%
COc1ccccc1NC(=O)CSc1nc(-c2ccccc2F)nc2cc(=O)[nH]n12 -0.891%
CC(=O)Nc1ccc(Nc2ncnc3sc4c(c23)CCCC4)cc1 -0.888%
COc1ccccc1OCc1nc(-c2cccc(C)c2)no1 3.23%
Cc1cccc(CCNC(=O)c2c[nH]c3ccc(S(=O)(=O)Nc4ccccc4F)cc3c2=O)c1 -2.06%
CCN(CC)CCCNC(=O)c1ccc2c(c1)NC(=O)C(CS(=O)(=O)Cc1cccc(Br)c1)N2 (stereo unspecified) 0.697%
COc1cccc(CNC(=O)CN2C(=O)CSc3c2c(C)nn3-c2ccccc2)c1 0.493%
FC(F)(F)c1cccc(Nc2nc3nonc3nc2Nc2ccc(Cl)cc2)c1 -6.78%
O=C(CCCCCn1c(=O)[nH]c2ccccc2c1=O)N1CCN(c2cccc(C(F)(F)F)c2)CC1 3.75%
CCCNC(=O)c1ccc(Cn2c(SCC(N)=O)nc3ccccc3c2=O)cc1 0.439%
O=S(=O)(c1cccc(Cl)c1)n1c(/C=C/c2ccccc2Cl)nc2ccccc21 9.55%
CCN(CC)S(=O)(=O)c1ccc2c(c1)N(CC(=O)Nc1c(C)cccc1C)C(=O)C1CCCN21 (stereo unspecified) -1.11%
COc1ccc(-c2nc(CSCC(=O)N3CCN(c4ccccc4F)CC3)c(C)o2)cc1 8.97%
Cc1ccc(Cn2c(CCCNC(=O)c3ccco3)nc3ccccc32)cc1 -2.15%
COc1cccc(CNC(=O)C2CCN(Cc3cc4ccccc4n3Cc3ccc(C)cc3)CC2)c1 -7.56%
Cc1ccc2scc(N3CCN(c4cccc(C(F)(F)F)c4)CC3)c(=O)c2c1 1.77%

Structural class: the compounds so far with an aryl thioether with sulfur outside any ring.
activity, negative = inhibition, inactive:
COc1ccccc1NC(=O)CSc1nc(-c2ccccc2F)nc2cc(=O)[nH]n12 -0.891%
CCCNC(=O)c1ccc(Cn2c(SCC(N)=O)nc3ccccc3c2=O)cc1 0.439%

Next part.

Potency, inconclusive:
CCOc1cccc(CC(=O)N2CCc3c([nH]c4ccccc34)C2c2ccc(F)cc2)c1OCC (stereo unspecified) 3.98 µM [inhibitor, full curve, poor fit]
O=C(NCc1ccccc1)c1ccc2c(c1)CCN2S(=O)(=O)c1ccccc1 39.8 µM [inhibitor, partial curve, poor fit]
COc1ccc(C2NC(=O)N(C)C3=C2C(=O)N(c2ccc(F)cc2)C3)cc1 (stereo unspecified) 0.158 µM [inhibitor, full curve, poor fit]
COc1ccc(C)cc1NC(=O)C1CCCN(S(=O)(=O)c2ccc3[nH]c(=O)ccc3c2)C1 (stereo unspecified) 12.6 µM [inhibitor, partial curve, poor fit]
Cc1cc(F)ccc1NS(=O)(=O)c1c(C)nc2scc(C)n2c1=O 5.62 µM [inhibitor, full curve, poor fit]
CCN(CC)CCNC(=O)c1nn(C)c2c1CS(=O)(=O)c1ccccc1-2 7.08 µM [inhibitor, partial curve, poor fit]
Cc1ccc(CNC(=O)c2nn(C)c3c2CS(=O)(=O)c2ccccc2-3)cc1 7.08 µM [inhibitor, partial curve, poor fit]
Cc1ccc(Cl)cc1NC(=O)C(C)n1nc(-c2ccccc2)ccc1=O (stereo unspecified) 39.8 µM [inhibitor, partial curve, poor fit]
Cc1ccc(C(=O)NC2(C(F)(F)F)N=C(c3ccccc3)N(C3CCCCC3)C2=O)cc1 (stereo unspecified) 7.08 µM [inhibitor, partial curve, poor fit]
Cc1ccc(C)c(N2CCN(C(=O)c3nn(C)c4c3CS(=O)(=O)c3ccccc3-4)CC2)c1 7.94 µM [inhibitor, full curve, poor fit]
CCc1nn2c(=O)cc(COC(=O)c3ccccc3NC(=O)c3cccs3)nc2s1 28.2 µM [inhibitor, partial curve, poor fit]
CCOC(=O)c1cccc(NC(=O)CCC(=O)N2CC(C)Oc3ccc(C)cc32)c1 (stereo unspecified) 1.12 µM [inhibitor, full curve, poor fit]
COc1ccc(CCNC(=O)c2c(C)oc3ncn(CC(C)C)c(=O)c23)cc1OC 0.631 µM [inhibitor, full curve, poor fit]
CCC1CCCCN1S(=O)(=O)c1ccc(C(=O)Nc2sc3c(c2C(N)=O)CCC3)cc1 (stereo unspecified) 39.8 µM [inhibitor, partial curve, poor fit]
Cn1cc(S(=O)(=O)N2CCCC2)cc1C(=O)Nc1ccc(F)cc1F 7.08 µM [inhibitor, partial curve, poor fit]
CC1=C(C(=O)Nc2ccccc2)C(c2ccc(Br)cc2)n2nc(CCCO)nc2N1 (stereo unspecified) 0.355 µM [inhibitor, full curve, poor fit]
Cc1ccccc1Nc1c(-c2ccc(N3CCOCC3)cc2)nc2cccc(C)n12 14.1 µM [inhibitor, partial curve, poor fit]
CCc1ccc(NC(=O)c2ccc3nc(C(C)C)oc3c2)cc1 2.82 µM [inhibitor, partial curve, poor fit]
N=c1n(CCN2CCCCC2)c2ccccc2n1CC(O)COc1ccccc1 (stereo unspecified) 5.01 µM [inhibitor, partial curve, poor fit]
O=C1c2oc3ccccc3c(=O)c2C(c2ccc(O)cc2)N1Cc1ccc2c(c1)OCO2 (stereo unspecified) 0.282 µM [inhibitor, full curve, poor fit]
Cc1ccc(CNC(=O)CN2C(=O)CSc3c2c(C)nn3-c2ccccc2)cc1 0.178 µM [inhibitor, full curve, poor fit]
CCN1CCN(c2c(S(=O)(=O)c3ccc(Cl)cc3)cnc3ccccc23)CC1 39.8 µM [inhibitor, partial curve, poor fit]
CCCCNc1ccc(-c2nc(-c3ccncc3)no2)cc1[N+](=O)[O-] 0.141 µM [inhibitor, full curve]
